Measurements taken from the supplement of paper PMC11006884.
This is a selection; strong and weak results do not stand in their true shares.

Amino acid sequences for entries named in this document (tags omitted). A change or cut given only in a name is not applied to a line headed by its entry.
UniProt Q969Z0: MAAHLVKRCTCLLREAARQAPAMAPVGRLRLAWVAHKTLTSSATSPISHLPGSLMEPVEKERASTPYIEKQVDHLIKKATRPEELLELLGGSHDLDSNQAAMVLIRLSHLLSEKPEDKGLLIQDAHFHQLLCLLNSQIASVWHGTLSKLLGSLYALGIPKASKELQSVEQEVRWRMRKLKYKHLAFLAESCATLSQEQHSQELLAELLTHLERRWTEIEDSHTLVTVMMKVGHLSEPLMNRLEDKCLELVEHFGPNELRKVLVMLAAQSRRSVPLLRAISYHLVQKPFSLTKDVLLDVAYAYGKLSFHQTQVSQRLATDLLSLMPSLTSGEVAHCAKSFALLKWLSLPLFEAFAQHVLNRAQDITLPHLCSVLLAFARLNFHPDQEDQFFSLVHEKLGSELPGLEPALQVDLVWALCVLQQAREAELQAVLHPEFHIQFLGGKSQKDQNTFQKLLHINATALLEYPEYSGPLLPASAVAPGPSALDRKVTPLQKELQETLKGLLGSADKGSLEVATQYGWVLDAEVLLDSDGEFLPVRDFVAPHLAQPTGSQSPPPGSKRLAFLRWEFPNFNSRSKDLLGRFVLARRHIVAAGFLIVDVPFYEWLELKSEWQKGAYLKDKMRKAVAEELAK
UniProt Q96B54: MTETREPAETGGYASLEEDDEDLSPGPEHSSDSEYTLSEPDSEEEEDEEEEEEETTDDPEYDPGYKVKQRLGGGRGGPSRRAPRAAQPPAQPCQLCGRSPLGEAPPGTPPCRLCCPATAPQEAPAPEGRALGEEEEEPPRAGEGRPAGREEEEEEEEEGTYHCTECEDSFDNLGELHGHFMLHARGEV
UniProt Q92696: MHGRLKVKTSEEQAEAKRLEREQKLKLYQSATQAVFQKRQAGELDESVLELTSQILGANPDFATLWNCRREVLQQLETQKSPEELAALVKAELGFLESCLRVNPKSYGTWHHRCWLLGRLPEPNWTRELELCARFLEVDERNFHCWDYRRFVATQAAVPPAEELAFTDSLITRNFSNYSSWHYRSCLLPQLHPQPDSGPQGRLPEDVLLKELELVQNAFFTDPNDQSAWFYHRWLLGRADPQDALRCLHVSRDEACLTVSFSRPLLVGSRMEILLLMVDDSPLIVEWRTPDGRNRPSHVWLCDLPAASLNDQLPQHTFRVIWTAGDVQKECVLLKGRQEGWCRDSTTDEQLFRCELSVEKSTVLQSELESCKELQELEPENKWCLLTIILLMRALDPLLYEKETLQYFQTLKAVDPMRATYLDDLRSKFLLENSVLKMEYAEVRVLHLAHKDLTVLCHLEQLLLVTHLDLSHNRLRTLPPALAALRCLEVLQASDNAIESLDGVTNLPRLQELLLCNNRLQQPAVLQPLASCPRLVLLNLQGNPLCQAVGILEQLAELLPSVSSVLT
UniProt Q92841: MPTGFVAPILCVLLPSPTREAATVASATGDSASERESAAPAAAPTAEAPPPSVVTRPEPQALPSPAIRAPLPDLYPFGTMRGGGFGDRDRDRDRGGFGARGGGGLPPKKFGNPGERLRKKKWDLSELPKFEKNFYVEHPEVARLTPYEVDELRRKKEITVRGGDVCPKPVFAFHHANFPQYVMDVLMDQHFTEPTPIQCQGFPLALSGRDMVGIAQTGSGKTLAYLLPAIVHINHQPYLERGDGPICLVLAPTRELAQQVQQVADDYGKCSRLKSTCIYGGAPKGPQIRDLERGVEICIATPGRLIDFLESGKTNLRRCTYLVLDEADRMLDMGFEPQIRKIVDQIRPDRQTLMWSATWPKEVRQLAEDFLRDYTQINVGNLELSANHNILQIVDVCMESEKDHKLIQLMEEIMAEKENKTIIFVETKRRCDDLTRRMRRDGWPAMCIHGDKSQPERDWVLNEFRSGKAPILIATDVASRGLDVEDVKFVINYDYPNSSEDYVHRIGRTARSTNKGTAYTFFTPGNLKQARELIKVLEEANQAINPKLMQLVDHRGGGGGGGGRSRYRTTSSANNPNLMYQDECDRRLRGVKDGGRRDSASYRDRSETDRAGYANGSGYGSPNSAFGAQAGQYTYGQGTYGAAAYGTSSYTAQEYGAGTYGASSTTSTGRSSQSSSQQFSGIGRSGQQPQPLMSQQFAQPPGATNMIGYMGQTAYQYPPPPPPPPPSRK
UniProt Q96HC4: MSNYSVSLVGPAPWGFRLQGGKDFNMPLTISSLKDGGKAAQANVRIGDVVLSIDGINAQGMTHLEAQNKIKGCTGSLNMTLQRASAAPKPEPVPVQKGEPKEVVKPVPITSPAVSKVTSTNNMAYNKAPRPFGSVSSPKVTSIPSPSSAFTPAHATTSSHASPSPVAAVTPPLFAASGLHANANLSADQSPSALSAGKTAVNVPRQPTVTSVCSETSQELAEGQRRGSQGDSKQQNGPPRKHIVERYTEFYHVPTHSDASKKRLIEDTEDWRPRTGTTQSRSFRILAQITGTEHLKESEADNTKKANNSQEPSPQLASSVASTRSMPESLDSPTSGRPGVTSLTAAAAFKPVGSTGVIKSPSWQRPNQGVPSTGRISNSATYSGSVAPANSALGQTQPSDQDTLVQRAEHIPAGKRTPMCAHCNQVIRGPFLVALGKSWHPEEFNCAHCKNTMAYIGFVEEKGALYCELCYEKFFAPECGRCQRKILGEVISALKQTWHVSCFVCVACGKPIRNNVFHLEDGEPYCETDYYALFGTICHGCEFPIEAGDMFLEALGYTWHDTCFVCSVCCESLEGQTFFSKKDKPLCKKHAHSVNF
UniProt Q96AG4: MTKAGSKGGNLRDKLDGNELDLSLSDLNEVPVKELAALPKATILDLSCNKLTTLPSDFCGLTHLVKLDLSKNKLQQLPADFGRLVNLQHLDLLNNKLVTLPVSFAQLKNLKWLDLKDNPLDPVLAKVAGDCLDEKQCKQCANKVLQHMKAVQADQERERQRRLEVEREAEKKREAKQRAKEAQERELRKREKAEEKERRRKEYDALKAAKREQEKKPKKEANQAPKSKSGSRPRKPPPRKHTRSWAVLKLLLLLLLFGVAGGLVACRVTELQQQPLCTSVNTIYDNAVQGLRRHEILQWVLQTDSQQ
UniProt Q92575: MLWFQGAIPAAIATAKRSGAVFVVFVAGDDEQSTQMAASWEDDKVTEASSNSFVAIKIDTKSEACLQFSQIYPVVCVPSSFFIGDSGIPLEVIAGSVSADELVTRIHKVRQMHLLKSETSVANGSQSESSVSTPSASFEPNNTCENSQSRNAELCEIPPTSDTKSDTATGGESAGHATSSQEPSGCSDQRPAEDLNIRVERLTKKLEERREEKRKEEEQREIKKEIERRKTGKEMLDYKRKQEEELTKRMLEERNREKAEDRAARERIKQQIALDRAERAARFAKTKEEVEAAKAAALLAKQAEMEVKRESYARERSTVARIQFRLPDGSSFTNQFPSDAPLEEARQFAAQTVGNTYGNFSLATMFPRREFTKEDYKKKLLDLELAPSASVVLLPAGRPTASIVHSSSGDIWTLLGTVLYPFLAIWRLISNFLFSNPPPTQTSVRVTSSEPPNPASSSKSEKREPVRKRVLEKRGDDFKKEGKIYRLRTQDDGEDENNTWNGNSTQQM
UniProt Q96E11: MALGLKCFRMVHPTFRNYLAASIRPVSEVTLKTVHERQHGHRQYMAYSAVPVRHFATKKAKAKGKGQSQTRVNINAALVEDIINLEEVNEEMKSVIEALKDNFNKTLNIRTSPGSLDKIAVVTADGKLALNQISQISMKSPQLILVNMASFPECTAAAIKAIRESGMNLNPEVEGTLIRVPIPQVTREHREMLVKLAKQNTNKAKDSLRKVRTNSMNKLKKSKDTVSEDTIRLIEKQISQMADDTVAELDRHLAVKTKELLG
UniProt Q93052: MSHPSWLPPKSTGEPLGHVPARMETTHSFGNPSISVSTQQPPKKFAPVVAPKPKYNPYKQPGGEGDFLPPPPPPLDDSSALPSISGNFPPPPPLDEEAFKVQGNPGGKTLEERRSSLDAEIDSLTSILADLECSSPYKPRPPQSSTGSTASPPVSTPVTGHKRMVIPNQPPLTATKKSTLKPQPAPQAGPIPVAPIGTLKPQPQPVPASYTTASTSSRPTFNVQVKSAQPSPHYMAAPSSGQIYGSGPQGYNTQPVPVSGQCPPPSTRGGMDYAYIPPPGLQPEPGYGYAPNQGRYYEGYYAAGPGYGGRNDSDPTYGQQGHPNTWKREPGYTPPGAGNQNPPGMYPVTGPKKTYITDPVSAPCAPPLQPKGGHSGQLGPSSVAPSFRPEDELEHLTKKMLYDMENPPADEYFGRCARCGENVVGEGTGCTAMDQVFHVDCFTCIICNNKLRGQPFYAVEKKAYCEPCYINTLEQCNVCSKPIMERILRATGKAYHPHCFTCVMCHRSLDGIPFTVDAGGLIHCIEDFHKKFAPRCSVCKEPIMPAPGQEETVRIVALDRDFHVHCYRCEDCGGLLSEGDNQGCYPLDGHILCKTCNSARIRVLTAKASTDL
UniProt Q92543: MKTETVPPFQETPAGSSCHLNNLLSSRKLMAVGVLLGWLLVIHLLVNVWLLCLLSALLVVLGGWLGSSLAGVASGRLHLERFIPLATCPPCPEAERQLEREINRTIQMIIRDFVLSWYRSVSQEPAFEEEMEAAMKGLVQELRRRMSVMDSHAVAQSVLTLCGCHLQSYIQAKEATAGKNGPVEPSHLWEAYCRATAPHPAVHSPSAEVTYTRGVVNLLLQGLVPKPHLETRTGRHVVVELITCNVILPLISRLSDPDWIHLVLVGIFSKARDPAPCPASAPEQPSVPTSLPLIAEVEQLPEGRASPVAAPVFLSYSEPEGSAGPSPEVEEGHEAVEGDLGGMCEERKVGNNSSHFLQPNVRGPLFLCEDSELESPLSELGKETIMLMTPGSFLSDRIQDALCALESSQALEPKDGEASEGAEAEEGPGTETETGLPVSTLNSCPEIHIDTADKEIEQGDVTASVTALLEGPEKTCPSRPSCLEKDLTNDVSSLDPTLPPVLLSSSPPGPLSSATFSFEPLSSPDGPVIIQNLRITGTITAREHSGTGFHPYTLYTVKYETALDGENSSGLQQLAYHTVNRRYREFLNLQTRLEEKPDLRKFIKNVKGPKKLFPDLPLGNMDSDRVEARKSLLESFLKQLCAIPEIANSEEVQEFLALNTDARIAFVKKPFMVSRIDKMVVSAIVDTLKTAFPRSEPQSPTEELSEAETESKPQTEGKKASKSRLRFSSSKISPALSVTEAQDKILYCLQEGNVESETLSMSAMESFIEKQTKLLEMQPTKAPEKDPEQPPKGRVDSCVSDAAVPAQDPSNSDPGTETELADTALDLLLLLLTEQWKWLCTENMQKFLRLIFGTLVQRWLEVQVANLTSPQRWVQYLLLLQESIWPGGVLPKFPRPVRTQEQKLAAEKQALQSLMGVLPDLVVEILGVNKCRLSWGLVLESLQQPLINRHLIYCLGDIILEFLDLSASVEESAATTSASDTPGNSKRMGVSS
UniProt Q96AB3: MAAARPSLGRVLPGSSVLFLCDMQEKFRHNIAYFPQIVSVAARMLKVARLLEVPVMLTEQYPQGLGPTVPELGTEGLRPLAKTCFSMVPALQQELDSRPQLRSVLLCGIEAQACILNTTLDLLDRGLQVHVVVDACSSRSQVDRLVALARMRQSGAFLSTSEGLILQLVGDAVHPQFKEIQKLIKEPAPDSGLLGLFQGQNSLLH
UniProt Q96CW5, whole entry, looked up: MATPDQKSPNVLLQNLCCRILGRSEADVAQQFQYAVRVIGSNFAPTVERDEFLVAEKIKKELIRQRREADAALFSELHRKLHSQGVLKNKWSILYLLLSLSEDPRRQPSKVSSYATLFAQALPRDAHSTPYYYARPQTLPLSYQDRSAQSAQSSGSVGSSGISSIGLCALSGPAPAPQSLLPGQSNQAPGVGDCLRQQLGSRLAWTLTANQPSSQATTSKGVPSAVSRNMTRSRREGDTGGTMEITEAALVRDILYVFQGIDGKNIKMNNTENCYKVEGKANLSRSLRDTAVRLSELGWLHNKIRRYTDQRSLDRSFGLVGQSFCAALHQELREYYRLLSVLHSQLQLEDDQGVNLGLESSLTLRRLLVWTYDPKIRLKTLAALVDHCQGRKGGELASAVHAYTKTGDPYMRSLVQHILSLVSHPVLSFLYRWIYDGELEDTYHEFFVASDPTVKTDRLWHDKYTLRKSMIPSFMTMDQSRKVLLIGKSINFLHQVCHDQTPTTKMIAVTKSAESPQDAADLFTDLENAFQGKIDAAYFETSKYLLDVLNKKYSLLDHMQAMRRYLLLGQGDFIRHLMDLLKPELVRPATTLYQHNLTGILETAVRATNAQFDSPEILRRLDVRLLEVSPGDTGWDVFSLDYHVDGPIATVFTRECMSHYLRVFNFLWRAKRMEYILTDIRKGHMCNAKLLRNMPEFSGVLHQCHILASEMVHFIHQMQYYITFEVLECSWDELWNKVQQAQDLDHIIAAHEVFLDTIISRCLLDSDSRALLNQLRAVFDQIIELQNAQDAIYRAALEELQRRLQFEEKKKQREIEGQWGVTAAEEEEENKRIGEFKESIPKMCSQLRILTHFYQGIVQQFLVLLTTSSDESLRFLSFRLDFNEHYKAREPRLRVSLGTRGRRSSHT

Compound: COC(=O)C#Cc1ccccc1 [methyl 3-phenylpropiolate]
Assay: log2 ratio of iodoacetamide-alkyne labeling of the cysteine site, DMSO over compound (competition); higher = stronger covalent engagement of the cysteine by the compound, active = 1 or more
Conditions: 500 µM; treatment time 1 h; system: HEK293T cell lysate
In short: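 HEK293T lysate (2 mg/mL) was treated with DMSO or electrophile (500 µM, 1 h, ambient temperature), then iodoacetamide alkyne (1 h), clicked to sCIP-TMT reagents, pooled, trypsin-digested overnight at 37 °C, streptavidin-enriched and acid-eluted. Peptides were run on Orbitrap Eclipse LC-MS/MS with FAIMS and quantified in FragPipe. The log2 competition ratio per cysteine is mean control-channel over mean compound-channel reporter intensity. Duplicate channels and three replicates were used, and cysteines quantified in only one replicate were excluded.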

log2 ratio of iodoacetamide-alkyne labeling, inactive:
AKAP1 C64 (UniProt Q92667) 0.518
TBRG4 C370 (UniProt Q969Z0) -0.0476
ZNF428 C93 (UniProt Q96B54) 0.191
UniProt Q969X6_C21 -0.136
RABGGTA C354 (UniProt Q92696) 0.131
UniProt Q96AX9_C323 0.768
UniProt Q92841_C319 0.141
PDLIM5 C213 (UniProt Q96HC4) 0.457
UniProt Q92616_C1275 -0.145
MED12 C83 (UniProt Q93074) 0.457
LRRC59 C131 (UniProt Q96AG4) 0.152
UBXN4 C144 (UniProt Q92575) 0.748
MRRF C154 (UniProt Q96E11) 0.108
LPP C468 (UniProt Q93052) 0.118
SECISBP2L C544 (UniProt Q93073) 0.341
SNX19 C277 (UniProt Q92543) 0.576
UniProt Q92841_C270 0.303
GBF1 C1272 (UniProt Q92538) 0.278
PYCR2 C95 (UniProt Q96C36) 0.156
KAT5 C11 (UniProt Q92993) -0.309
TOPBP1 C1166 (UniProt Q92547) 0.385
UniProt Q96CS4_C70 -0.0277
UniProt Q92616_C1535 0.307
Sirt1 C574 (UniProt Q96EB6) 0.175
GBF1 C1414 (UniProt Q92538) -0.0335
TMEM131 C1214 (UniProt Q92545) 0.265
CMBL C8 (UniProt Q96DG6) 0.444
ISOC2 C84 (UniProt Q96AB3) 0.179
TUBGCP3 C17 (UniProt Q96CW5) 0.523
KHSRP C379 (UniProt Q92945) 0.0013
HSPH1 C658 (UniProt Q92598) 0.0521
NECTIN2 C446 (UniProt Q92692) 0.264
UBE2F C116 (UniProt Q969M7) -0.308
UniProt Q92841_C277 0.761
LRRC59 C59 (UniProt Q96AG4) 0.222
WBP2 C80 (UniProt Q969T9) 0.811

Copied from above (6 entries):
log2 ratio of iodoacetamide-alkyne labeling, inactive:
HSPH1 C658 (UniProt Q92598) 0.0521
NECTIN2 C446 (UniProt Q92692) 0.264
UBE2F C116 (UniProt Q969M7) -0.308
UniProt Q92841_C277 0.761
LRRC59 C59 (UniProt Q96AG4) 0.222
WBP2 C80 (UniProt Q969T9) 0.811

Next part:

log2 ratio of iodoacetamide-alkyne labeling, active:
AKAP1 C376 (UniProt Q92667) 1.15
